Data source: PubChem BioAssay AID1259308 (NCATS, 2017)
Test: 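Candidate targets for better recombinant protein yield in mammalian cells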 (primary screen). System: human HEK293 embryonic kidney cells stably expressing firefly luciferase (HEK-CMV-Luc2-Hygro). Knock-down reagent: single siRNA against human genes, 0.8 pmol siRNA per well. Timing: 72 h. Detection: 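Reporter luminescence and viable-cell signal on separate replicate plates, given as percent of non-targeting control and median/MAD z-scores, plus per-cell luciferase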. Direction: total luciferase, z-score and total luciferase, % of control: higher = more reporter protein produced; luciferase per cell, z-score: higher = more reporter output per viable cell. Active means: 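An siRNA counts as active if its total luciferase robust z-score exceeds 3; genes with two or more such siRNAs out of three were retested with fresh siRNAs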. Calls: active = raised luciferase; inactive = no rise.
Shown is an unselected part of about 59,000 reagents tested. About 1,510 of all reagents (2.6%) were called active. 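Calls use total luciferase alone and ignore viability, so some active siRNAs may act by altering cell number.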 The numbers tell different reagents against one gene apart. Not all columns of the deposit are shown. No sequences are given here.

Gene | reagent | total luciferase, z-score | total luciferase, % of control | luciferase per cell, z-score | activity call
C4A (complement C4A (Chido/Rodgers blood group)) | 1 | -0.253 | 76.8 | -0.399 | inactive
C4A (complement C4A (Chido/Rodgers blood group)) | 2 | -0.295 | 76 | 0.473 | inactive
C4A (complement C4A (Chido/Rodgers blood group)) | 3 | 0.971 | 101 | 1.13 | inactive
DOK5 (docking protein 5) | 1 | 0.27 | 87.3 | 0.493 | inactive
DOK5 (docking protein 5) | 2 | 1.87 | 119 | 1.22 | inactive
DOK5 (docking protein 5) | 3 | -0.772 | 66.5 | -0.66 | inactive
MSANTD3 (Myb/SANT DNA binding domain containing 3) | 1 | 0.682 | 95.4 | -0.0754 | inactive
MSANTD3 (Myb/SANT DNA binding domain containing 3) | 2 | 1.01 | 102 | 0.303 | inactive
MSANTD3 (Myb/SANT DNA binding domain containing 3) | 3 | 0.406 | 90 | 0.422 | inactive
STON2 (stonin 2) | 1 | -1.48 | 52.5 | -1.55 | inactive
STON2 (stonin 2) | 2 | -0.28 | 76.3 | 0.232 | inactive
STON2 (stonin 2) | 3 | 1.97 | 121 | 0.985 | inactive
DUSP21 (dual specificity phosphatase 21) | 1 | -0.442 | 73.1 | -0.0775 | inactive
DUSP21 (dual specificity phosphatase 21) | 2 | -0.905 | 63.9 | -1.06 | inactive
DUSP21 (dual specificity phosphatase 21) | 3 | 0.026 | 82.4 | 0.0182 | inactive
LYPD2 (LY6/PLAUR domain containing 2) | 1 | 5.21 | 186 | 3.36 | active
LYPD2 (LY6/PLAUR domain containing 2) | 2 | 0.605 | 93.9 | -0.527 | inactive
LYPD2 (LY6/PLAUR domain containing 2) | 3 | 2.41 | 130 | 1.56 | inactive
OR1D4 (olfactory receptor family 1 subfamily D member 4) | 1 | 0.519 | 92.2 | 0.616 | inactive
OR1D4 (olfactory receptor family 1 subfamily D member 4) | 2 | 1.3 | 108 | 1.49 | inactive
OR1D4 (olfactory receptor family 1 subfamily D member 4) | 3 | -0.706 | 67.8 | 0.88 | inactive
SNTB1 (syntrophin beta 1) | 1 | -0.652 | 68.9 | -0.921 | inactive
SNTB1 (syntrophin beta 1) | 2 | 0.108 | 84 | -0.851 | inactive
SNTB1 (syntrophin beta 1) | 3 | 0.417 | 90.2 | -0.339 | inactive
CSF3R (colony stimulating factor 3 receptor) | 1 | 1.13 | 104 | 2.74 | inactive
CSF3R (colony stimulating factor 3 receptor) | 2 | 1.09 | 104 | 0.638 | inactive
CSF3R (colony stimulating factor 3 receptor) | 3 | -2.58 | 30.5 | -2.18 | inactive
CRYGB (crystallin gamma B) | 1 | 0.58 | 93.4 | 0.662 | inactive
CRYGB (crystallin gamma B) | 2 | -1.2 | 58 | -0.77 | inactive
CRYGB (crystallin gamma B) | 3 | 0.639 | 94.6 | 0.529 | inactive
PRAMENP (PRAME N-terminal like, pseudogene) | 1 | 0.0212 | 82.3 | -0.12 | inactive
PRAMENP (PRAME N-terminal like, pseudogene) | 2 | -0.15 | 78.9 | -0.133 | inactive
PRAMENP (PRAME N-terminal like, pseudogene) | 3 | 0.877 | 99.3 | 1.71 | inactive
ZNF705A (zinc finger protein 705A) | 1 | 0.0623 | 83.1 | 0.219 | inactive
ZNF705A (zinc finger protein 705A) | 2 | 0.153 | 84.9 | -0.213 | inactive
ZNF705A (zinc finger protein 705A) | 3 | 2.59 | 133 | 2.4 | inactive
ITGB8 (integrin subunit beta 8) | 1 | -0.697 | 68 | -0.908 | inactive
ITGB8 (integrin subunit beta 8) | 2 | 0.595 | 93.7 | 1.14 | inactive
ITGB8 (integrin subunit beta 8) | 3 | -0.954 | 62.9 | -0.417 | inactive

Laid out differently: 8 of the entries above.
DUSP21 (dual specificity phosphatase 21) #3: total luciferase, z-score = 0.026; total luciferase, % of control = 82.4; luciferase per cell, z-score = 0.0182; activity call = inactive
LYPD2 (LY6/PLAUR domain containing 2) #1: total luciferase, z-score = 5.21; total luciferase, % of control = 186; luciferase per cell, z-score = 3.36; activity call = active
LYPD2 (LY6/PLAUR domain containing 2) #2: total luciferase, z-score = 0.605; total luciferase, % of control = 93.9; luciferase per cell, z-score = -0.527; activity call = inactive
LYPD2 (LY6/PLAUR domain containing 2) #3: total luciferase, z-score = 2.41; total luciferase, % of control = 130; luciferase per cell, z-score = 1.56; activity call = inactive
OR1D4 (olfactory receptor family 1 subfamily D member 4) #1: total luciferase, z-score = 0.519; total luciferase, % of control = 92.2; luciferase per cell, z-score = 0.616; activity call = inactive
OR1D4 (olfactory receptor family 1 subfamily D member 4) #2: total luciferase, z-score = 1.3; total luciferase, % of control = 108; luciferase per cell, z-score = 1.49; activity call = inactive
OR1D4 (olfactory receptor family 1 subfamily D member 4) #3: total luciferase, z-score = -0.706; total luciferase, % of control = 67.8; luciferase per cell, z-score = 0.88; activity call = inactive
SNTB1 (syntrophin beta 1) #1: total luciferase, z-score = -0.652; total luciferase, % of control = 68.9; luciferase per cell, z-score = -0.921; activity call = inactive

The listing continues:
Gene | reagent | total luciferase, z-score | total luciferase, % of control | luciferase per cell, z-score | activity call
PANX2 (pannexin 2) | 1 | -0.437 | 73.2 | -0.167 | inactive
PANX2 (pannexin 2) | 2 | 0.566 | 93.1 | 0.914 | inactive
PANX2 (pannexin 2) | 3 | 0.338 | 88.6 | 0.947 | inactive
PRKAR2A | 1 | -0.977 | 62.4 | -0.932 | inactive
PRKAR2A | 2 | 0.261 | 87.1 | 0.967 | inactive
PRKAR2A | 3 | -0.0553 | 80.8 | -0.625 | inactive
SLC36A2 | 1 | -0.032 | 81.2 | -0.959 | inactive
SLC36A2 | 2 | -0.604 | 69.9 | -1.03 | inactive
SLC36A2 | 3 | -0.0474 | 80.9 | 0.809 | inactive
USP48 (ubiquitin specific peptidase 48) | 1 | -1.32 | 55.6 | -0.435 | inactive
USP48 (ubiquitin specific peptidase 48) | 2 | -0.435 | 73.2 | -0.202 | inactive
USP48 (ubiquitin specific peptidase 48) | 3 | 0.557 | 93 | 2.17 | inactive
VWA5B2 (von Willebrand factor A domain containing 5B2) | 1 | 3.12 | 144 | 2.49 | active
VWA5B2 (von Willebrand factor A domain containing 5B2) | 2 | 0.97 | 101 | 0.526 | inactive
VWA5B2 (von Willebrand factor A domain containing 5B2) | 3 | 0.645 | 94.7 | 0.906 | inactive
PLEK2 (pleckstrin 2) | 1 | -0.56 | 70.8 | -0.878 | inactive
PLEK2 (pleckstrin 2) | 2 | 0.91 | 100 | 0.316 | inactive
PLEK2 (pleckstrin 2) | 3 | 1.2 | 106 | 1.12 | inactive
ZNF383 (zinc finger protein 383) | 1 | 0.0694 | 83.3 | -0.384 | inactive
ZNF383 (zinc finger protein 383) | 2 | 0.756 | 96.9 | 0.354 | inactive
ZNF383 (zinc finger protein 383) | 3 | 0.0673 | 83.2 | -0.405 | inactive
TRPC4 | 1 | 0.448 | 90.8 | -0.314 | inactive
TRPC4 | 2 | -0.131 | 79.3 | 0.499 | inactive
TRPC4 | 3 | -0.183 | 78.2 | -0.689 | inactive
TG (thyroglobulin) | 1 | -0.807 | 65.8 | -0.532 | inactive
TG (thyroglobulin) | 2 | 0.264 | 87.1 | -0.451 | inactive
TG (thyroglobulin) | 3 | 0.746 | 96.7 | 0.303 | inactive
GALNT14 (polypeptide N-acetylgalactosaminyltransferase 14) | 1 | -1.21 | 57.9 | -1.19 | inactive
GALNT14 (polypeptide N-acetylgalactosaminyltransferase 14) | 2 | 1.51 | 112 | 1.28 | inactive
GALNT14 (polypeptide N-acetylgalactosaminyltransferase 14) | 3 | 0.358 | 89 | 0.198 | inactive
DNAH5 (dynein axonemal heavy chain 5) | 1 | -0.432 | 73.3 | -0.692 | inactive
DNAH5 (dynein axonemal heavy chain 5) | 2 | -1.58 | 50.4 | -1.52 | inactive
DNAH5 (dynein axonemal heavy chain 5) | 3 | -0.135 | 79.2 | -0.596 | inactive
ATRNL1 (attractin like 1) | 1 | -0.951 | 63 | -1.34 | inactive
ATRNL1 (attractin like 1) | 2 | 1.53 | 112 | 2.06 | inactive
ATRNL1 (attractin like 1) | 3 | 1.53 | 112 | 2.02 | inactive
